Here are results for 3 substances from PMC4826439.

Amino acid sequences for entries named in this document (tags omitted).
UniProt Q9Z148: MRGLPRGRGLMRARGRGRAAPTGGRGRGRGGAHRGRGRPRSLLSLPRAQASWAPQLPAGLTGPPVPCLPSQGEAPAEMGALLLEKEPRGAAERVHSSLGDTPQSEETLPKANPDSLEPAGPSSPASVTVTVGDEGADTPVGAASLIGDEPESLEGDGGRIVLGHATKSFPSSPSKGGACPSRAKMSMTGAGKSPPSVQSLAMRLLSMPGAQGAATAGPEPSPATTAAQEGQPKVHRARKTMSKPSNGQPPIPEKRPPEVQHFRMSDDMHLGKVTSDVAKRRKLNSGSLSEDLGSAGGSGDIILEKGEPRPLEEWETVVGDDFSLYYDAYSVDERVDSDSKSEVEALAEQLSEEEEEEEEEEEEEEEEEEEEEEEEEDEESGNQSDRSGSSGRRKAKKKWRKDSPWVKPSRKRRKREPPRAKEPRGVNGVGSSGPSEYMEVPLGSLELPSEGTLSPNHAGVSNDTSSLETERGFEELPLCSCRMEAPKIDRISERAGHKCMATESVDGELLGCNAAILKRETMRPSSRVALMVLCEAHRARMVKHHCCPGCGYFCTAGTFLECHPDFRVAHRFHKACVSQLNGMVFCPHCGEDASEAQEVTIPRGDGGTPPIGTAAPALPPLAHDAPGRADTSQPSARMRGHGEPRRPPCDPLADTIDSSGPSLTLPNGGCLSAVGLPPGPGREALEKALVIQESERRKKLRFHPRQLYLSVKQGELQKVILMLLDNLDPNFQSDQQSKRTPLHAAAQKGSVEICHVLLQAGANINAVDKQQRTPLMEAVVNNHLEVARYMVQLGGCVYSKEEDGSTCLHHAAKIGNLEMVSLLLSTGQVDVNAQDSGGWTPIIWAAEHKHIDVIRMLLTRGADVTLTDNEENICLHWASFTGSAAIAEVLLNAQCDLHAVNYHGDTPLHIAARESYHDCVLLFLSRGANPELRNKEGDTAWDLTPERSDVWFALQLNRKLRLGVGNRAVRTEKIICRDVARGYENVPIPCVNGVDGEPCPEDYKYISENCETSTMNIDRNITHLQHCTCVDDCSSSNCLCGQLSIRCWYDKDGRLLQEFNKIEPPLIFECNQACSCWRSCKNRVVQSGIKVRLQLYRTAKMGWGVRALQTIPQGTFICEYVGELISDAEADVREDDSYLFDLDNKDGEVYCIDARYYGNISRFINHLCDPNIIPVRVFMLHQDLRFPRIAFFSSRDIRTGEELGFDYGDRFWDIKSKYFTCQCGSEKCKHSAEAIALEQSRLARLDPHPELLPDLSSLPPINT
UniProt Q9CWR8: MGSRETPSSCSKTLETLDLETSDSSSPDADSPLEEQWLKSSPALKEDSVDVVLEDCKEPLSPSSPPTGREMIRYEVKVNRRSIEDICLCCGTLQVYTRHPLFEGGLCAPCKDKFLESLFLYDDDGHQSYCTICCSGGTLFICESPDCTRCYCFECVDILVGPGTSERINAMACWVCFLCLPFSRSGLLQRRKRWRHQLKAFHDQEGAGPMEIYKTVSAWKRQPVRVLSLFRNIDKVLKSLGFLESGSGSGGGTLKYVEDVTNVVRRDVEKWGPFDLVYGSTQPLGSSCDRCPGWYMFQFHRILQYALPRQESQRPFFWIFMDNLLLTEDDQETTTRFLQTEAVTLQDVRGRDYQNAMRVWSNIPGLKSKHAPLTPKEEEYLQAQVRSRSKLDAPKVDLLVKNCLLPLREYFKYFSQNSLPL
UniProt P13864: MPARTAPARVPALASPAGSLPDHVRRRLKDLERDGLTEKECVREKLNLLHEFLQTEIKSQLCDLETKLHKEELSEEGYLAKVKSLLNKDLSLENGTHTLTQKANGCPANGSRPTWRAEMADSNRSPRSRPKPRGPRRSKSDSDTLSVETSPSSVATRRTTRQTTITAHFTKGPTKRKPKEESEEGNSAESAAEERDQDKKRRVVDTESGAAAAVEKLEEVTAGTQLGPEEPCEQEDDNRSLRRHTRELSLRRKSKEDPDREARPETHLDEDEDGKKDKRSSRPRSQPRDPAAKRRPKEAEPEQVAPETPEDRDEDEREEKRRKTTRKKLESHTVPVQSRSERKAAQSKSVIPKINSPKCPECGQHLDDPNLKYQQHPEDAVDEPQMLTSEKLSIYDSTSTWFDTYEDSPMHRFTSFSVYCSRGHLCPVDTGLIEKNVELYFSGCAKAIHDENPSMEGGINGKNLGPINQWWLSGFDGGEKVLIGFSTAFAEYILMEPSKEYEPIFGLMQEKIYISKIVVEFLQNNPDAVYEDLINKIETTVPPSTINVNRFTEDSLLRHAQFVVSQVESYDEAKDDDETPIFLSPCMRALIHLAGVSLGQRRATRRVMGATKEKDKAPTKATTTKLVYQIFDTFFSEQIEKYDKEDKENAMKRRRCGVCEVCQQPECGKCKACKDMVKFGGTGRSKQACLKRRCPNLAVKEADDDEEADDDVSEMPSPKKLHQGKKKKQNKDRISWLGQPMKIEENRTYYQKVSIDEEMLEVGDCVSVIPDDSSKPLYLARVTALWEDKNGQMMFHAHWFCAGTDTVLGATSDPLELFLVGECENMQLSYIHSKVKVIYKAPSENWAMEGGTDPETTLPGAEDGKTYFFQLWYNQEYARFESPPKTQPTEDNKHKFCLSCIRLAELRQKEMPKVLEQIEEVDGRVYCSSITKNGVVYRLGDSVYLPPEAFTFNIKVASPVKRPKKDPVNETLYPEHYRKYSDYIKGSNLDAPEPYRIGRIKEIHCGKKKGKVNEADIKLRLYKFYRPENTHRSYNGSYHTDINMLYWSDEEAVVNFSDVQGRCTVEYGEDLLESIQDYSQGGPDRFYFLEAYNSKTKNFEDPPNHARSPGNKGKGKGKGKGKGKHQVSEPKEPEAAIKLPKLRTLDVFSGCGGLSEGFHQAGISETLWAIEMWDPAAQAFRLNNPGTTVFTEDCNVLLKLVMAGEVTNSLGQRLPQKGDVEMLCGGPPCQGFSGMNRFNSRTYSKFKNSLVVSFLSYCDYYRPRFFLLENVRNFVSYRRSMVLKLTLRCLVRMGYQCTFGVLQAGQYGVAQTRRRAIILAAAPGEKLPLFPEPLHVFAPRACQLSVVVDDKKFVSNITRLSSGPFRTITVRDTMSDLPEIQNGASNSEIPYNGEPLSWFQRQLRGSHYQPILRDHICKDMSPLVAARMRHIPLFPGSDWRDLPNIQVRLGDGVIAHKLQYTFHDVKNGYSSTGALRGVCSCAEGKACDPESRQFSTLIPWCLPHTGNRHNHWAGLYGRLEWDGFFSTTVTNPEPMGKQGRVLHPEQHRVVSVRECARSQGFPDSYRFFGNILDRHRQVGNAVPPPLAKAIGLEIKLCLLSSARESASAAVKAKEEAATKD

These are yes or no findings as the source states them, for the method shown. In cells and extracts the contact can be indirect. These calls come from enrichment with a bait or labelling near it, and not all partners need be listed. No binding means not detected with the bait.

The target in this assay is G9a (EHMT2), histone H3 lysine 9 methylase (mouse) (UniProt Q9Z148). The experiment in a line: affinity purification with mass spectrometry; G9a complex purified from ESCs, co-purifying proteins identified by mass spectrometry.
Turning to DNMT3L (from UniProt Q9CWR8 1-421), the binding entry is on record as “binds”.

As to DNMT3B (from UniProt O88509 1-859), the binding entry is “binds”.

Turning to DNMT1 (from UniProt P13864 1-1620), the binding result is on record as “no binding”.
